Measured values as given in PMC7946963, “Phosphorylation regulates the binding of autophagy receptors to FIP200 Claw domain for selective autophagy initiation” (Nature Communications, 2021).
These are yes or no findings as the source states them, for the method shown. Some binding calls cover weakened binding; strength is not graded here.

Chains of the proteins cited; added tags and fusions are not shown. Lines headed by an entry give the natural chain unless they say otherwise; changes in a name come on top. Residues count along the entry.
UniProt P60520: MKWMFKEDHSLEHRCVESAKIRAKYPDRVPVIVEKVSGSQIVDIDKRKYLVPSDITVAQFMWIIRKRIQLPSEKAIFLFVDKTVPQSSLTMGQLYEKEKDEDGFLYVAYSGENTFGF
UniProt O95166: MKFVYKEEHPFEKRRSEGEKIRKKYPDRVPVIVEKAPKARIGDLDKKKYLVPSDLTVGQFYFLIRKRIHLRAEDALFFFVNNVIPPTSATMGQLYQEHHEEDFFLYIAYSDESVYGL
UniProt Q9BXW4, residues 1-126: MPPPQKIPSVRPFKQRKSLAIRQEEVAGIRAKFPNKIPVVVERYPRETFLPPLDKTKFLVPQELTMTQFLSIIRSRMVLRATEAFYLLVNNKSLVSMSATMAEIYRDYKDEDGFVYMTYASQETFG
UniProt Q8TDY2, residues 1450-1594: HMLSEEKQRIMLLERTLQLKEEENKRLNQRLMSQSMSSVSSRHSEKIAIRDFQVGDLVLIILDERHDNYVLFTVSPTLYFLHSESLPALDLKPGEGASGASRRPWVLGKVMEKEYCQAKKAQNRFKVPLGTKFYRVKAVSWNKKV
UniProt Q9ULG6: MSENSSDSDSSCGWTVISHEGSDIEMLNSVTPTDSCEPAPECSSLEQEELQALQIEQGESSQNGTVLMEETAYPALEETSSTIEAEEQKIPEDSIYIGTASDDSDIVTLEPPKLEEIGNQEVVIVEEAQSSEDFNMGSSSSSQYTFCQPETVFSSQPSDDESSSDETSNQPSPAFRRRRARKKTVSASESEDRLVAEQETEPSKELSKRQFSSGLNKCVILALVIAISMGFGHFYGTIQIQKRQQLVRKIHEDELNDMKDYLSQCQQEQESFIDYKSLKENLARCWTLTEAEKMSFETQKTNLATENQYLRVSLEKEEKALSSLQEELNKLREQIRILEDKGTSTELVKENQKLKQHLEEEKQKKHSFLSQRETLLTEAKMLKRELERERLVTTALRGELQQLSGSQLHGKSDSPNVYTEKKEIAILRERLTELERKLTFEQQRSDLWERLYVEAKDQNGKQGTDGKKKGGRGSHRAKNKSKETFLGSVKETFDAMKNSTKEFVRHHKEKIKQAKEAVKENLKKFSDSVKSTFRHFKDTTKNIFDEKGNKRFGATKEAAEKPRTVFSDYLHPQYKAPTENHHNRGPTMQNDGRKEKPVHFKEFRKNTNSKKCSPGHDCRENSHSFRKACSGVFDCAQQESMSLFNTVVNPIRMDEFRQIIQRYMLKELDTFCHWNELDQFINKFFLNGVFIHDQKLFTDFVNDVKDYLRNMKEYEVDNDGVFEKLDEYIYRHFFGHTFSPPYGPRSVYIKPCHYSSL
Optineurin(33–168) (Q96CV9, residues 33-168): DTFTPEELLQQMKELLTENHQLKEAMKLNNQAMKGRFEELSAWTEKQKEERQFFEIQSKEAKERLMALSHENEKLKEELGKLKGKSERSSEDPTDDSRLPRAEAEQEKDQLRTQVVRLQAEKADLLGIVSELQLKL
Optineurin(186–209) (Q96CV9, residues 186-209): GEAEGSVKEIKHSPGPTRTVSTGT

Legend:
Experiment in all cases: SEC; analytical gel filtration of purified proteins and their mixtures; Superose 200 increase 10/300 GL; 20 mM Tris-HCl pH 7.9, 100 mM NaCl, 1 mM DTT; both purified
GABARAPL2 = GABARAPL2 (UniProt P60520)
GABARAP = GABARAP (UniProt O95166)
LC3C = LC3C (UniProt Q9BXW4)
LC3A = LC3A (UniProt Q9H492)
[1] = molecular target: nano-FIP200(1450–1594) (human) (UniProt Q8TDY2)

CCPG1 FIR2 (residues 99–113), recombinant (from UniProt Q9ULG6 99-113) (domain or fragment)
binding (GABARAPL2): binds | binding (GABARAP): binds | binding (LC3C): binds | binding (LC3A): binds

Optineurin(33–168) (from UniProt Q96CV9 33-168) (domain or fragment)
binding [1]: no binding

Optineurin(186–209) (from UniProt Q96CV9 186-209) (domain or fragment)
binding [1]: no binding
